Laboratory results: publication PMC7819943, “Rice protein-binding microarrays: a tool to detect cis-acting elements near promoter regions in rice”
This is one part of the list.

target: T1, OsSMF1 (Oryza sativa, UniProt Q6ZLB0 1-436); assay: protein-binding microarray (RPBM); PBS, 2% BSA, 51.3 ng/ul salmon testes DNA, 50 uM zinc acetate, 200 nM TF, 25 C, 1 h; high values mean tight binding; settings: protein: recombinant; tags: N-terminal polyhistidine and DsRed monomer fusion (pET32a); chain copies: 2; label: CyDye5-dUTP incorporated in the synthesized complementary strand; 3' TTTTT single-stranded linker to array surface; dsDNA, one strand shown
T1 sequence: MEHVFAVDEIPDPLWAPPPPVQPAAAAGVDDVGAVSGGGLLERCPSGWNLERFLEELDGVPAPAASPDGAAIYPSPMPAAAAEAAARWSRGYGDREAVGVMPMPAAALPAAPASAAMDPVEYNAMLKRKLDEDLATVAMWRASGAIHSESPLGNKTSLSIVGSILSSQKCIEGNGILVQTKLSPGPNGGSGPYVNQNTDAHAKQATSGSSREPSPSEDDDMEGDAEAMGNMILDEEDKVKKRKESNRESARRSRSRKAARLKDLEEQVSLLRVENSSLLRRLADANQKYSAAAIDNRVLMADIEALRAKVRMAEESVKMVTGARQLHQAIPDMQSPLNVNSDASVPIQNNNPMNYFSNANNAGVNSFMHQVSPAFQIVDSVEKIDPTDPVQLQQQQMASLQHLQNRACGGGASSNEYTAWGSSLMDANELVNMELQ
How it was run: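 Transcription factors, each fused N-terminally to a polyhistidine tag and DsRed, were expressed in E. coli BL21-CodonPlus and purified on Ni–NTA. A custom Agilent array was made double-stranded by primer extension with Cy5-dUTP and blocked with 2% BSA. It was incubated with 200 nM protein in PBS, 2% BSA, salmon testes DNA and 50 µM zinc acetate at 25 °C for 1 h, then washed. The binding signal is per-feature fluorescence intensity (arbitrary units) read on an Axon 4000B scanner.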

Sequence	binding signal
AGTCGTATTCTACACATGACTACGTAGTTCTACGTTTACGCGGAGTCACCTAGTGCAG	3770 fluorescence intensity (a.u.)
CGATTATACGGACGTTCTAATGCTCTCGTCACACAAACTACGGAGTCACCTAGTGCAG	3840 fluorescence intensity (a.u.)
TCTTGGAAAAGAACACATGTGGGTAATCATCGTGAGATGTCGGAGTCACCTAGTGCAG	3360 fluorescence intensity (a.u.)
TAGGAGGCCCACGTGGGCGACGACGGCAGGAGACCACCATCGGAGTCACCTAGTGCAG	3660 fluorescence intensity (a.u.)
CTTTAATAACCCTCCACGTGTTCCAGTGCGCCACCCATCACGGAGTCACCTAGTGCAG	11900 fluorescence intensity (a.u.)
ATGCTTCTACGCAGTTGAGTTGTCACAGCCTGATTTTCGTCGGAGTCACCTAGTGCAG	5420 fluorescence intensity (a.u.)
GTCAAAGTTATAAAAGTTTGACCTCAACTTTGTCCAAAACCGGAGTCACCTAGTGCAG	24200 fluorescence intensity (a.u.)
TGTCAAAATTTTGACTGTTACTCGTTGGGACTATGGACCTCGGAGTCACCTAGTGCAG	17900 fluorescence intensity (a.u.)
TCACTCCAACTCGCCTCCCGTCCCTGACATTGGCAGCTTCCGGAGTCACCTAGTGCAG	3260 fluorescence intensity (a.u.)
GAGTCTAGTTAGTTCATGATTAGGCATAAGTGCTGCATTACGGAGTCACCTAGTGCAG	3340 fluorescence intensity (a.u.)
GCACATACATGTACAATGAGATGACAAAATCACGCGTCATCGGAGTCACCTAGTGCAG	5190 fluorescence intensity (a.u.)
GACATCTGGAGGCGTCATGCAAGATGTCACATCCATAGAACGGAGTCACCTAGTGCAG	3940 fluorescence intensity (a.u.)
AAACCTTATAGTTGTTTAAATTCTCGAAACAAGGTCCCTGCGGAGTCACCTAGTGCAG	3180 fluorescence intensity (a.u.)
CGCCGCCGCTCCCGCCACCGCCACATCCCTTGCCGGTGATCGGAGTCACCTAGTGCAG	3240 fluorescence intensity (a.u.)
GTTCCACATTTCAGCATTAATGAATTGGCATACGTGATGACGGAGTCACCTAGTGCAG	3360 fluorescence intensity (a.u.)
AAGCACATCACCAAGACCATGGTGAAGTCTTATAGGCATGCGGAGTCACCTAGTGCAG	3430 fluorescence intensity (a.u.)
GCAGATGCAGTCACATGTTCTTTTCTCTCTCATCACCATGCGGAGTCACCTAGTGCAG	3530 fluorescence intensity (a.u.)
TGTGGGATGGATTTGTGGTGATTGAGAGGGTTTGAAAGGGCGGAGTCACCTAGTGCAG	3190 fluorescence intensity (a.u.)
GGGCCTCAATTTCCAACCCATCTACGTGTTCAGACTACAGCGGAGTCACCTAGTGCAG	3480 fluorescence intensity (a.u.)
AGTGTGGAGAAACTGTAACATGGCCTTTGAAAAGCTGTCACGGAGTCACCTAGTGCAG	15800 fluorescence intensity (a.u.)
ACTCTCTCCTGTGACTGTGTGTGTGTGCGCGTGTGCGTGCCGGAGTCACCTAGTGCAG	6270 fluorescence intensity (a.u.)

Copied from above for reference:
Sequence	binding signal
CTTTAATAACCCTCCACGTGTTCCAGTGCGCCACCCATCACGGAGTCACCTAGTGCAG	11900 fluorescence intensity (a.u.)
ATGCTTCTACGCAGTTGAGTTGTCACAGCCTGATTTTCGTCGGAGTCACCTAGTGCAG	5420 fluorescence intensity (a.u.)
GTCAAAGTTATAAAAGTTTGACCTCAACTTTGTCCAAAACCGGAGTCACCTAGTGCAG	24200 fluorescence intensity (a.u.)

Later entries

Sequence	binding signal
TAGTGATTACATCACTACTGATAGCCTGATATATGGCAAGCGGAGTCACCTAGTGCAG	4060 fluorescence intensity (a.u.)
CGGGTGTGCGTCACCGGAGGCGCCGGCTTCATCGCCTCGTCGGAGTCACCTAGTGCAG	7270 fluorescence intensity (a.u.)
CTATTTAAAACGTGACGCAATGCAGCGATAGAGCACCTTGCGGAGTCACCTAGTGCAG	5260 fluorescence intensity (a.u.)
CTATAGGTTGCCGGCACGTGCGACCTGCTCCGTAGCGAGCCGGAGTCACCTAGTGCAG	3370 fluorescence intensity (a.u.)
CAATCAGCTATCGTATGTATGTAGAAGATACACATGGCATCGGAGTCACCTAGTGCAG	3150 fluorescence intensity (a.u.)
AGCACAAACCGACGGCGAGCTGCCCTCCTTATCCTCCGATCGGAGTCACCTAGTGCAG	29800 fluorescence intensity (a.u.)
CGTCTGAAGTCCGGGCTCCTGCAGGCAGCATTATACCCATCGGAGTCACCTAGTGCAG	3280 fluorescence intensity (a.u.)
TTATTCTCTTTGGTCTGCAAAGAGACAACGCATTATGCTACGGAGTCACCTAGTGCAG	3150 fluorescence intensity (a.u.)
ACTTTCTGATGTGTGGATAAGGCCTGCATTTGGTGGACGTCGGAGTCACCTAGTGCAG	5290 fluorescence intensity (a.u.)
CTCCAGCCTAAAATAAGTGCAGCCGTGGATATCTGTGTCCCGGAGTCACCTAGTGCAG	22000 fluorescence intensity (a.u.)
ATTACCACGATCCATTCAGATCCTACGTGGCGCTCGCGCGCGGAGTCACCTAGTGCAG	16100 fluorescence intensity (a.u.)
GTTGGGTTGGGTCGAGTTGGAGTGGGCCTTCTTATCTTGACGGAGTCACCTAGTGCAG	4480 fluorescence intensity (a.u.)
CCTGGCAAGGATGACGTCCAAGAAATCTGCACGGTTTCTTCGGAGTCACCTAGTGCAG	4050 fluorescence intensity (a.u.)
CCCATCCACCAGCTCACAATGTCATGTCACTATGCATCTCCGGAGTCACCTAGTGCAG	6200 fluorescence intensity (a.u.)
CTCCTCCACCACCACACGCACGTACAGACGTACTCGATCTCGGAGTCACCTAGTGCAG	3200 fluorescence intensity (a.u.)
CTTCTCCACCGTCTCCATGGCTGTCCTGTCCGGCCCCTGGCGGAGTCACCTAGTGCAG	3180 fluorescence intensity (a.u.)
AGAGTTCAGTGTCCATGTGCGAAAAGTGCCATCCCTCTCTCGGAGTCACCTAGTGCAG	3210 fluorescence intensity (a.u.)
ACCAGGGGACCCGTCCCGCGCGCGTTACACCGATCGAATCCGGAGTCACCTAGTGCAG	3160 fluorescence intensity (a.u.)
GCACGCCGGCGTATCGCCGGCGATCCCAACTCCACGTCGACGGAGTCACCTAGTGCAG	8050 fluorescence intensity (a.u.)
CTCAGCCTACCCATATAATAGTGAGTTCTTTACGATTAATCGGAGTCACCTAGTGCAG	4160 fluorescence intensity (a.u.)
CACGTCGGTTCGCGTGCGCCACGGTGGCAGGAGGACGGCGCGGAGTCACCTAGTGCAG	11200 fluorescence intensity (a.u.)
